{
  "source": "patent US20250282824A1",
  "about": "“Inhibitors of the Wnt Signaling Pathway and Uses Thereof” (Stichting VU, priority 2021, published 2025)",
  "molecular_target": "T1, β-catenin/TCF-4 interaction (Homo sapiens, UniProt P35222)",
  "T1 construct": "a solution of 1 μM β-catenin (aa 1-781) and 40 nM FITC-labeled TCF-4 peptide was prepared; 3C protease recognition site (C); His6 (C); made in house; host or cells: Escherichia coli BL21 (DE3), pET-28a(+); the tracer is a synthetic peptide",
  "T1 sequence (P35222 1-781)": "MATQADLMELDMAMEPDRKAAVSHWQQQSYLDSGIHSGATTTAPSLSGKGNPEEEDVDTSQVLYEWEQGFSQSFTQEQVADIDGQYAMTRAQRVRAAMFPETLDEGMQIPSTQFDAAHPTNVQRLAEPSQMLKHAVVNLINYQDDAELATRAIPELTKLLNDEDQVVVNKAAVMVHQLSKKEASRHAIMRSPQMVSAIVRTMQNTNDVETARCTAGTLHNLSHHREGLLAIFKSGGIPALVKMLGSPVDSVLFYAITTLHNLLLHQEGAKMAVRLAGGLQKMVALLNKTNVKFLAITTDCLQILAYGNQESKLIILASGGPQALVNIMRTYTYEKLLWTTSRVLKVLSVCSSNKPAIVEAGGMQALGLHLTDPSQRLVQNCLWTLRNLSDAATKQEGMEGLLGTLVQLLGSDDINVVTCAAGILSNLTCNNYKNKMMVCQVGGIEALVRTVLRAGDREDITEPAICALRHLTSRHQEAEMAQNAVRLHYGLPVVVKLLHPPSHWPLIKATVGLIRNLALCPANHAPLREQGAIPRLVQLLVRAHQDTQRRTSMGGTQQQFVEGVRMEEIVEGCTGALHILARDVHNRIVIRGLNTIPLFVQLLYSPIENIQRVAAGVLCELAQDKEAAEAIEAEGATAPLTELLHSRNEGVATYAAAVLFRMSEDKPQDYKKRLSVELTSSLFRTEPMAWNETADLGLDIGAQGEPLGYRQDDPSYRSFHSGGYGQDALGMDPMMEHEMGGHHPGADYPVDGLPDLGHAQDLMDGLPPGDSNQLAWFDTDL",
  "test": "FP competition of the β-catenin/TCF-4 interaction (titration and 30 μM pre-screening)",
  "format": "binding",
  "conditions": "30 μM competitor; 0% = no competitor, 100% = E-CBD at 30 μM; singlets",
  "note": "Some of these results come from one statement about several compounds together. Residues, ends and D or L forms follow the SMILES beside them.",
  "data": [
    {"smiles": "CC(C)C[C@@H]1NC(=O)[C@@H]2CSCc3ccccc3CSC[C@H](NC(=O)[C@H](CC(N)=O)NC(=O)[C@H](CCCNC(=N)N)NC(=O)[C@H]([C@@H](C)O)NC(=O)[C@H](C(C)C)NC(=O)CCNC(=O)CCNC(=O)[C@H](Cc3ccccc3)NC(=O)[C@H](C(C)C)NC(=O)[C@H](CC(C)C)NC1=O)C(=O)N[C@@H](C(C)C)C(=O)N1CCC[C@@H]1C(=O)N1CCC[C@H]1C(=O)N[C@@H](CC(=O)O)C(=O)N2", "note": "[C-b7, [βA-V-T-R-N-[C-V-p-P-D-C]-L-L-V-F-βA]/b7] (HELM PEPTIDE1{[bAla].V.T.R.N.C.V.[dP].P.D.C.L.L.V.F.[bAla]}|CHEM1{[c1ccc(C[*:2])c(C[*:1])c1]}$PEPTIDE1,CHEM1,6:R3-1:R1|PEPTIDE1,CHEM1,11:R3-1:R2|PEPTIDE1,PEPTIDE1,1:R1-16:R2$$$V2.0)", "values": [
      {"measurement": "Inhibition of the TCF/β-catenin interaction", "value": "> 50", "unit": "%"}
    ]}
  ]
}
